Test results: publication PMC10942865
Where a chain is given by its changes, count along the chain named. No constants are given. Whether binding was seen depends on the method and setting. In cells and extracts the contact can be indirect. Some entries that bind do so weakly or less than the wild type. Sequences can lack the tags named with a protein.

Protein sequences, listed by entry. Tags and fused reporters are not part of them.
UniProt Q9Y4B6: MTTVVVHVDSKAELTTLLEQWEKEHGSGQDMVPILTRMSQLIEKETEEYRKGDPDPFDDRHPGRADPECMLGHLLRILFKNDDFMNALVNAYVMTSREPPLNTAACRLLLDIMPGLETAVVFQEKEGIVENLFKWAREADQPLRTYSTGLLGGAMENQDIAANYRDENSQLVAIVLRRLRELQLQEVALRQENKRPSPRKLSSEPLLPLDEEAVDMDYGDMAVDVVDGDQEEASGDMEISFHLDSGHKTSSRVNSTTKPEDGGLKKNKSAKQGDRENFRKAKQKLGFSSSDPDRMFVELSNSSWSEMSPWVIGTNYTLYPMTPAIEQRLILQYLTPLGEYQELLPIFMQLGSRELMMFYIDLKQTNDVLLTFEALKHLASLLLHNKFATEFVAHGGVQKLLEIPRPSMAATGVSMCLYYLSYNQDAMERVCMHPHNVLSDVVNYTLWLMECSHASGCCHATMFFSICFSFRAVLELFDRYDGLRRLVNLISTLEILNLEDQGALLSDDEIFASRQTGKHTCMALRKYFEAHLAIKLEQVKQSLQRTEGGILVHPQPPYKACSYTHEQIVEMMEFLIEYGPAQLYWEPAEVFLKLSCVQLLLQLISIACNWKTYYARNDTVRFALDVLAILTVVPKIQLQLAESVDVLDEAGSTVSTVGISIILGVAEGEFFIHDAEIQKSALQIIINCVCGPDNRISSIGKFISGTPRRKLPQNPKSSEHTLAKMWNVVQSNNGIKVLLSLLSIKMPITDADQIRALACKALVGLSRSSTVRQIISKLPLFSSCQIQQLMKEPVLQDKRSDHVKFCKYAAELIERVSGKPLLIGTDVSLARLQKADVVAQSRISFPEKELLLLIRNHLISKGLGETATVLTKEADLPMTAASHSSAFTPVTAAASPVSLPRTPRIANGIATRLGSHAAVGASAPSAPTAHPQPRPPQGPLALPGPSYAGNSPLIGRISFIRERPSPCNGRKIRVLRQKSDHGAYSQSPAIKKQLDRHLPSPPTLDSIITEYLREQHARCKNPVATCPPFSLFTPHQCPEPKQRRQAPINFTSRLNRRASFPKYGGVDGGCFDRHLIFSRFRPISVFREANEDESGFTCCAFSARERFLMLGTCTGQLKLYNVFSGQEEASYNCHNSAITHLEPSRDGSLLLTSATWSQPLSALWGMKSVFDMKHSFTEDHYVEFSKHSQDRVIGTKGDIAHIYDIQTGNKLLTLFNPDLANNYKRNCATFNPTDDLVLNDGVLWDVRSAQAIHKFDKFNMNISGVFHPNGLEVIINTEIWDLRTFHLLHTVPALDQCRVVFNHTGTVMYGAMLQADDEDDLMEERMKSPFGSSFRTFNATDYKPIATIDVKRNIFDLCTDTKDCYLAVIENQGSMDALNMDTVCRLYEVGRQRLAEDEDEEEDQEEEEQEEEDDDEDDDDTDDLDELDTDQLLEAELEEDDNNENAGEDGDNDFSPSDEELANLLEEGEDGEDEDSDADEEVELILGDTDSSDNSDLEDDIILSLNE
UniProt O94986: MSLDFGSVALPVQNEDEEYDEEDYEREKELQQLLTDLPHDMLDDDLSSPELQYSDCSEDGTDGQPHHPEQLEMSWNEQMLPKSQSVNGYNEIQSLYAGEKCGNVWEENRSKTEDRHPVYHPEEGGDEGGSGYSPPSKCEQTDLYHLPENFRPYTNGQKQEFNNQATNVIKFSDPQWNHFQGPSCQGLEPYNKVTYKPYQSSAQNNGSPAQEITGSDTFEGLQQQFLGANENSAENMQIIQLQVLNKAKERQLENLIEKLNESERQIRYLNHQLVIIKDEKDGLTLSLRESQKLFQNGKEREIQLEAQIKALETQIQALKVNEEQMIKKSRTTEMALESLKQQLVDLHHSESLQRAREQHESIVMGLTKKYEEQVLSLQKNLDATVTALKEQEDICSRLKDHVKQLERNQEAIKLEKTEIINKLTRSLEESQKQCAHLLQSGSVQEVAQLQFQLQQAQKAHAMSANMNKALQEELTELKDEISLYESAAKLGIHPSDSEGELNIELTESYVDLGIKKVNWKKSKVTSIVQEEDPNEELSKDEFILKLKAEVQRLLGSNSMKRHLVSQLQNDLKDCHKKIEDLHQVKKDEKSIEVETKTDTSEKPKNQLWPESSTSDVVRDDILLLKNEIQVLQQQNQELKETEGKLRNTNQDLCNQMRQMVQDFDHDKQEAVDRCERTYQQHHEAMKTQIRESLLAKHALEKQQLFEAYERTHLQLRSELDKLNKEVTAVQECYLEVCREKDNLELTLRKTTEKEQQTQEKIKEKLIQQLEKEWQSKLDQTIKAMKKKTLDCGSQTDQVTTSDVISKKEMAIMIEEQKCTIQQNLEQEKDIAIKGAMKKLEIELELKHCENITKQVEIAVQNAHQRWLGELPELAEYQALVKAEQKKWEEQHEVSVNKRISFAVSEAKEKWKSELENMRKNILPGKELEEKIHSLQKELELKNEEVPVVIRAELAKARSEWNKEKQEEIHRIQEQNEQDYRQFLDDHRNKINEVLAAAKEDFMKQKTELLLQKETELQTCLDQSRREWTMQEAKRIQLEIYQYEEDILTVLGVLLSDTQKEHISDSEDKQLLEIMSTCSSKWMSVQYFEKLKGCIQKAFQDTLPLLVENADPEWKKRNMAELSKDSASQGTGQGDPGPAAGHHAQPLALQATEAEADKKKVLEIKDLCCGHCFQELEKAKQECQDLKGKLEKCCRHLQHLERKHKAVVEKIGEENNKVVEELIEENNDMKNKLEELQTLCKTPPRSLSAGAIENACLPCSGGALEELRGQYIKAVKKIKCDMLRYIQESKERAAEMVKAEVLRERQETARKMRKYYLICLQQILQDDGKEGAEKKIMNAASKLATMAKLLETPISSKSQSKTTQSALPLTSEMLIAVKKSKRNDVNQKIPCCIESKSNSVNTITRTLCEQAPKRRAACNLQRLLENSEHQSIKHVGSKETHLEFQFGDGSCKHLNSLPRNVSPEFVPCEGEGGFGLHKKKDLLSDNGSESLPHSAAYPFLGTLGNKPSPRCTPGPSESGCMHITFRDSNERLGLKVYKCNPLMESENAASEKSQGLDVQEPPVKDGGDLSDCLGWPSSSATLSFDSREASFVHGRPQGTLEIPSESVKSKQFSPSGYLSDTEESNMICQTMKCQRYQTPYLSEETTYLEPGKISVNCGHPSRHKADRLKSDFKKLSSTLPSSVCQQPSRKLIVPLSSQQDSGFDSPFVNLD
UniProt O95071: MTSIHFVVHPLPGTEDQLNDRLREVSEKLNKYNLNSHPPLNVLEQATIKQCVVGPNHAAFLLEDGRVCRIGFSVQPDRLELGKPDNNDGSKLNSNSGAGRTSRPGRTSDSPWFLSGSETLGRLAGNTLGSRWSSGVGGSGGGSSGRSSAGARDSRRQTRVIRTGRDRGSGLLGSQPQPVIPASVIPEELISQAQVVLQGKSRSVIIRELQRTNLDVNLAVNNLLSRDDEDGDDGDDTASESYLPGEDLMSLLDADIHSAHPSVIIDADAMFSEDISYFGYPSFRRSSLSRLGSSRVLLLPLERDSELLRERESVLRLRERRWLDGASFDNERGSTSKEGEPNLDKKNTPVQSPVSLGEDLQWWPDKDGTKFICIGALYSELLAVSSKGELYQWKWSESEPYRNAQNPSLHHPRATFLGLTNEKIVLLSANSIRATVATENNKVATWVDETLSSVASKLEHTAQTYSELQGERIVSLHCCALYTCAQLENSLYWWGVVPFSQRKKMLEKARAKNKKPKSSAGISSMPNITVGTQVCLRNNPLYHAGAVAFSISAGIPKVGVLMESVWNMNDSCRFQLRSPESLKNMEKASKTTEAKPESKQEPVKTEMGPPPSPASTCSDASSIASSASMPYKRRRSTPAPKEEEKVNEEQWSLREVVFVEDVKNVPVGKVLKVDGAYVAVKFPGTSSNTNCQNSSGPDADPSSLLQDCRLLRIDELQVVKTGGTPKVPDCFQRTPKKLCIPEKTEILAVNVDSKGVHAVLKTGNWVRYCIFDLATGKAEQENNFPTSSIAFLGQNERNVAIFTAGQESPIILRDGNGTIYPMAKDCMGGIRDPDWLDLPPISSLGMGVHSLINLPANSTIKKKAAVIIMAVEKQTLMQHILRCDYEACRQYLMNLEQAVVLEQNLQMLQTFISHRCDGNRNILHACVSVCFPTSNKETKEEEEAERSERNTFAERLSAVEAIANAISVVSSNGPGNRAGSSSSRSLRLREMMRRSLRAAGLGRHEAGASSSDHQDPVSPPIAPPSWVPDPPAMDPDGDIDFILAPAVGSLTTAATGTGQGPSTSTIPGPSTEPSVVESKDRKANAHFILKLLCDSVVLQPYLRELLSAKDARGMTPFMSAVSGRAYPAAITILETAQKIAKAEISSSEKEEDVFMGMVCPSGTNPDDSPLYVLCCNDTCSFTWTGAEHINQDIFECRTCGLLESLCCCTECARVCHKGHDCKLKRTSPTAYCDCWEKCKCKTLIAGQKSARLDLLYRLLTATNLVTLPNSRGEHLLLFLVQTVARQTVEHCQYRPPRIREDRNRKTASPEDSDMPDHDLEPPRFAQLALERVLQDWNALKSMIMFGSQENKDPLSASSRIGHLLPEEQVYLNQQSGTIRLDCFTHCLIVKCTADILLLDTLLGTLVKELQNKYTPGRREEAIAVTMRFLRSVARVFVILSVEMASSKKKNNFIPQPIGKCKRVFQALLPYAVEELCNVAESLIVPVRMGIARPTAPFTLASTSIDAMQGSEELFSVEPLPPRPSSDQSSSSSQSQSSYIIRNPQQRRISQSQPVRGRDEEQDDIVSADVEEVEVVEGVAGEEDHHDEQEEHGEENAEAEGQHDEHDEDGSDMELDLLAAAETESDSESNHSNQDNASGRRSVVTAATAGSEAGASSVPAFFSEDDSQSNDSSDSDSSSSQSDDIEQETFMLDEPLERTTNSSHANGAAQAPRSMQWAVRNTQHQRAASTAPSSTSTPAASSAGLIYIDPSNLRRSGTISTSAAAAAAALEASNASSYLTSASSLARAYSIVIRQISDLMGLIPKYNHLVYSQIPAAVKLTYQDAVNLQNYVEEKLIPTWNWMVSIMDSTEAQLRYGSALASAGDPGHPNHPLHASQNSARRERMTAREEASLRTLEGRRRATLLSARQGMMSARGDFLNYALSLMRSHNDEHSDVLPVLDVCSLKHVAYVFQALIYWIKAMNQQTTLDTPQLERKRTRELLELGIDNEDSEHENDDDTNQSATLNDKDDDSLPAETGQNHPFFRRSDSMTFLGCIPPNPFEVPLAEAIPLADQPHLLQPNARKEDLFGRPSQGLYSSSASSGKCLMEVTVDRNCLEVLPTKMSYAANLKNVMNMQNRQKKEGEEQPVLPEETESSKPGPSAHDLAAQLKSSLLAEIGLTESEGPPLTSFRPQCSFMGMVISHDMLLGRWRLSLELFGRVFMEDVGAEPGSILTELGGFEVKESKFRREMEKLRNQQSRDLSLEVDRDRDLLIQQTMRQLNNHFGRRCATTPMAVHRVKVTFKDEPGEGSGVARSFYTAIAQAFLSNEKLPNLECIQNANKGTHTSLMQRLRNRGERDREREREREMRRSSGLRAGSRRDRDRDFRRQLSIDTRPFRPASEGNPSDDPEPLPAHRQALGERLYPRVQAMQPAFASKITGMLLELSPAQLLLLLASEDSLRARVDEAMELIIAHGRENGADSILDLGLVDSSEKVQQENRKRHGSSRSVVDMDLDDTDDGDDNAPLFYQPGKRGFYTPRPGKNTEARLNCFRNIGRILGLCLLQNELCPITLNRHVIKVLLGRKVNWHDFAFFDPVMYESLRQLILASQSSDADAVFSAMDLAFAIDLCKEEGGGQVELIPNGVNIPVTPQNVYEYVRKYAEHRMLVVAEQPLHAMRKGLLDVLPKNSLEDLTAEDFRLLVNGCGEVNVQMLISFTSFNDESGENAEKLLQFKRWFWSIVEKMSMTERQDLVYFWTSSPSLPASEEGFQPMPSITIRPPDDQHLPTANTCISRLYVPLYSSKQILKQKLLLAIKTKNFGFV

Columns and labels:
[1] = biological target: T1, Flag-PLK4 wt (polo-like kinase 4), full-length (human) (UniProt O00444); test: co-IP; competition: Flag-PLK4 overexpressed in HEK293T together with increasing amounts of Myc-DCAF1 plasmid DNA (+ to ++++) for 48 h; IP against the Flag tag, Western blot
T1 sequence: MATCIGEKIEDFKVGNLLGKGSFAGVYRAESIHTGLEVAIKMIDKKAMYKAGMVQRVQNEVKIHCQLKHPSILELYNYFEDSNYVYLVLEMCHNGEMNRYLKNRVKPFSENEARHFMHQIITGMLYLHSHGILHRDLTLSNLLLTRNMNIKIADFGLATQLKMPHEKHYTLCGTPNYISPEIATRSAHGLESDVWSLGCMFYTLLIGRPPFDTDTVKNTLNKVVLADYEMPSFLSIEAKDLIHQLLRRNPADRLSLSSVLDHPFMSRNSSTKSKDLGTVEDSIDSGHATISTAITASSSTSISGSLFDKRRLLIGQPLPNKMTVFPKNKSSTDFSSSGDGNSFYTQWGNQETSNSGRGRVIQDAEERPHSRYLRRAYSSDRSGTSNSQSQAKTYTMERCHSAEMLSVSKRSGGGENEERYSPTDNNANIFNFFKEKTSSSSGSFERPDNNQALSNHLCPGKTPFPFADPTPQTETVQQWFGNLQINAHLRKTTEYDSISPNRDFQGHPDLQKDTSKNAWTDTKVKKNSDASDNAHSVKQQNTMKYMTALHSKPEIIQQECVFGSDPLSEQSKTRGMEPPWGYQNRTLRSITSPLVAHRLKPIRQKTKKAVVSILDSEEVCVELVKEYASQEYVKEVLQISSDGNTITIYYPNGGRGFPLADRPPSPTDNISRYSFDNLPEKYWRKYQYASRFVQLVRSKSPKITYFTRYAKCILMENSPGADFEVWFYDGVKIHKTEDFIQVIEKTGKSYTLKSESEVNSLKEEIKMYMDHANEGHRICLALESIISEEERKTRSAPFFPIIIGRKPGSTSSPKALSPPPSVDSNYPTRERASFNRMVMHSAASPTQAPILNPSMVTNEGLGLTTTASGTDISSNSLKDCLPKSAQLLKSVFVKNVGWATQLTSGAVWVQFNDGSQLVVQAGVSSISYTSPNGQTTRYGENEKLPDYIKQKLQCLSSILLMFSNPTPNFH

[2] = biological target: T1, Flag-PLK4 wt (polo-like kinase 4), full-length (human); test: co-IP; Flag-tagged protein overexpressed in HEK293T; 3-6 mg cell extract in NP-40 buffer with α-Flag M2 beads, 3 h or overnight at 4°C, 3x Flag peptide elution, Western blot; also cells synchronized in G1/S or G2, siRNA against PLK4, or λ-phosphatase treatment of the immunoprecipitate
[3] = biological target: T1, Flag-PLK4 wt (polo-like kinase 4), full-length (human); test: co-IP; Flag-PLK4 overexpressed in HEK293T cells arrested in M phase by single thymidine and nocodazole; α-Flag M2 beads, Western blot
[4] = biological target: T2, Flag-PLK4 K41R (kinase-dead) (human) (UniProt O00444); test: co-IP; Flag-tagged protein overexpressed in HEK293T; 3-6 mg cell extract in NP-40 buffer with α-Flag M2 beads, 3 h or overnight at 4°C, 3x Flag peptide elution, Western blot; also cells synchronized in G1/S or G2, siRNA against PLK4, or λ-phosphatase treatment of the immunoprecipitate
T2 sequence: T1 sequence with K41R

[5] = biological target: T3, Flag-PLK4-AA (S285A + T289A), β-TrCP-binding mutant (human) (UniProt O00444); test: as above
T3 sequence: T1 sequence with S285A, T289A

[6] = biological target: T1, Flag-PLK4 wt (polo-like kinase 4), full-length (human); test: co-IP; sequential: Flag-PLK4 and HA-DCAF1 overexpressed in HEK293T; IP against the Flag tag, Flag peptide elution, then IP against the HA tag from the eluates, Western blot

| Substance | binding [1] | binding [2] | binding [6] | further results |
| --- | --- | --- | --- | --- |
| DCAF1 (VprBP), endogenous (from UniProt Q9Y4B6 1-1507) |  | binds |  | binding [3]: binds weakly; binding [4]: binds; binding [5]: binds |
| HA-DCAF1 (from UniProt Q9Y4B6 1-1507) |  |  | binds |  |
| Myc-DCAF1 (from UniProt Q9Y4B6 1-1507) | binds |  |  |  |

Continued, in another order:

| binding [1] | binding [2] | binding [6] | Substance | further results |
| --- | --- | --- | --- | --- |
| binds | binds |  | CEP152, endogenous (from UniProt O94986 1-1710) |  |
|  | binds | binds | DDB1 (DNA damage-binding protein 1), endogenous (from UniProt Q16531 1-1140) |  |
|  |  | no binding | UBR5/EDD, endogenous (from UniProt O95071 1-2799) |  |
